This assay addresses FLAG-EZH2 (wild-type) (UniProt Q15910). The assay is described as follows: affinity purification with mass spectrometry; whole cell lysates of MDA-MB-231 knockdown-rescue cells expressing FLAG vector, FLAG-EZH2 or FLAG-T367A; anti-FLAG antibody beads; on-bead digestion, LC-MS/MS; SAINT and FC scoring; three biological replicates.

Amino acid sequences for entries named in this document (tags omitted).
UniProt Q15910: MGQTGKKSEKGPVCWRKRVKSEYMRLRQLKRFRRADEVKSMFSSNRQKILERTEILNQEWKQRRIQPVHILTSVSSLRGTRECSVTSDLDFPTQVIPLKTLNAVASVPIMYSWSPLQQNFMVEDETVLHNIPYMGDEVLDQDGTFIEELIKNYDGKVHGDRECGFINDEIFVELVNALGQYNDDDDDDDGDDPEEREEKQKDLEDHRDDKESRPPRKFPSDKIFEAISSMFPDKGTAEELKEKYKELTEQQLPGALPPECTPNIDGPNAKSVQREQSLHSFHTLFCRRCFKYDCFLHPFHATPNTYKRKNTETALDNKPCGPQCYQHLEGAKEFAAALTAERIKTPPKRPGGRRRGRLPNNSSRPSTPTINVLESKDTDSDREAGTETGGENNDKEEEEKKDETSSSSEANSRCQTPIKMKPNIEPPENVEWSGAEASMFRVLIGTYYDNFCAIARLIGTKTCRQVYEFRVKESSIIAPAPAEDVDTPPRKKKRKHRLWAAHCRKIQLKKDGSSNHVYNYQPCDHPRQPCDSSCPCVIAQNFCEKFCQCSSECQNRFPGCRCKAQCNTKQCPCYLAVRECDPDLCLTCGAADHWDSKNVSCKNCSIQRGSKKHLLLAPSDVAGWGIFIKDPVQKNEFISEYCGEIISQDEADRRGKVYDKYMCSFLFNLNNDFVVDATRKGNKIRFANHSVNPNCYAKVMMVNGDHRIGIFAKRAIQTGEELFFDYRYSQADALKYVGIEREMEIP
UniProt Q12929: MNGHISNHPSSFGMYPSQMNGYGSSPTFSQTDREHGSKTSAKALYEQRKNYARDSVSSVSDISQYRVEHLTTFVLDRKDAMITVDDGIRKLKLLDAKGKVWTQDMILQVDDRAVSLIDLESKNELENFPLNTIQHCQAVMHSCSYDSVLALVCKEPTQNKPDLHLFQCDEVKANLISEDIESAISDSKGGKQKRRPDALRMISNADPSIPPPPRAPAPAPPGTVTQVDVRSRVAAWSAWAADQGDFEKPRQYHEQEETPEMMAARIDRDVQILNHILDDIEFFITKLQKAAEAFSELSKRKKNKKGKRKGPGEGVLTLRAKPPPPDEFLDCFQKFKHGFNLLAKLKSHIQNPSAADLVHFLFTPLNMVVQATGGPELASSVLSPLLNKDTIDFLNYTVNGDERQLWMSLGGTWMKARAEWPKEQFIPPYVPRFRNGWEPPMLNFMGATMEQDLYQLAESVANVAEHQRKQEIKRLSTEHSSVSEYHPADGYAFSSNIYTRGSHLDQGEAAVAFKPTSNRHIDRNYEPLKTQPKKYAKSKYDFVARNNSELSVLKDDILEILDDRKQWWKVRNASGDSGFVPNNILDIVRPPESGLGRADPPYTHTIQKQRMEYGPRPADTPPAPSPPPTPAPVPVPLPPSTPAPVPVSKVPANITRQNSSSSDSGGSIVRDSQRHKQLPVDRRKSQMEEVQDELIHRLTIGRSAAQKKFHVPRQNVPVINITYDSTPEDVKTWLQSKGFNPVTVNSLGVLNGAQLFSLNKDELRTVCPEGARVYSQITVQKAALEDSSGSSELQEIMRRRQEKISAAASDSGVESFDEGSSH
UniProt Q9UJU6: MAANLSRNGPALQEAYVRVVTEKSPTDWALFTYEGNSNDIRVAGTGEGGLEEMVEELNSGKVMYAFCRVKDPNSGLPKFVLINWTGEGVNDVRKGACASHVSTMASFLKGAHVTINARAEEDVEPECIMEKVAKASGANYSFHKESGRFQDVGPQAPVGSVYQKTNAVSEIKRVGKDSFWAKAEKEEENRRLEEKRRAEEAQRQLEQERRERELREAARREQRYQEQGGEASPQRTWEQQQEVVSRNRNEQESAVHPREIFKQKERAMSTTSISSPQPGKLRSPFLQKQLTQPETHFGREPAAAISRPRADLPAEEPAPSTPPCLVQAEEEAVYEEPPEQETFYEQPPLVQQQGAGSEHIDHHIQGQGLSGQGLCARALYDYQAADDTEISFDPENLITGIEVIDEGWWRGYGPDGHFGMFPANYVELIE

Results are given in words; binding and its absence hold for the method and conditions named. Binding seen in cells or lysates may run through a third protein. A yes stands for co-enrichment or nearness to the bait. Other partners may have been found.

Turning to “EPS8 (Epidermal Growth Factor Receptor Pathway Substrate 8) (from UniProt Q12929 1-822)”, the binding entry is recorded as “binds”.

On to “SYNE2 (nesprin-2) (from UniProt Q8WXH0 1-6885)”, for which the binding result is reported as “binds”.

Turning to DBNL (from UniProt Q9UJU6 1-430), the binding entry is “binds”.

“vinculin (endogenous) (from UniProt P18206-2)”: the binding entry is given as “binds”.

These data come from publication PMC6051995.
